Reference: patent publication US20180043012A1 (CSL BEHRING RECOMBINANT FACILITY, published 2018)
No constants are given. Whether binding was seen depends on the method and setting. Some binding calls cover weakened binding; strength is not graded here.

The chains behind the UniProt entries cited, without tags or fusion partners. Residues count along the entry.
UniProt P04275, residues 764-2813: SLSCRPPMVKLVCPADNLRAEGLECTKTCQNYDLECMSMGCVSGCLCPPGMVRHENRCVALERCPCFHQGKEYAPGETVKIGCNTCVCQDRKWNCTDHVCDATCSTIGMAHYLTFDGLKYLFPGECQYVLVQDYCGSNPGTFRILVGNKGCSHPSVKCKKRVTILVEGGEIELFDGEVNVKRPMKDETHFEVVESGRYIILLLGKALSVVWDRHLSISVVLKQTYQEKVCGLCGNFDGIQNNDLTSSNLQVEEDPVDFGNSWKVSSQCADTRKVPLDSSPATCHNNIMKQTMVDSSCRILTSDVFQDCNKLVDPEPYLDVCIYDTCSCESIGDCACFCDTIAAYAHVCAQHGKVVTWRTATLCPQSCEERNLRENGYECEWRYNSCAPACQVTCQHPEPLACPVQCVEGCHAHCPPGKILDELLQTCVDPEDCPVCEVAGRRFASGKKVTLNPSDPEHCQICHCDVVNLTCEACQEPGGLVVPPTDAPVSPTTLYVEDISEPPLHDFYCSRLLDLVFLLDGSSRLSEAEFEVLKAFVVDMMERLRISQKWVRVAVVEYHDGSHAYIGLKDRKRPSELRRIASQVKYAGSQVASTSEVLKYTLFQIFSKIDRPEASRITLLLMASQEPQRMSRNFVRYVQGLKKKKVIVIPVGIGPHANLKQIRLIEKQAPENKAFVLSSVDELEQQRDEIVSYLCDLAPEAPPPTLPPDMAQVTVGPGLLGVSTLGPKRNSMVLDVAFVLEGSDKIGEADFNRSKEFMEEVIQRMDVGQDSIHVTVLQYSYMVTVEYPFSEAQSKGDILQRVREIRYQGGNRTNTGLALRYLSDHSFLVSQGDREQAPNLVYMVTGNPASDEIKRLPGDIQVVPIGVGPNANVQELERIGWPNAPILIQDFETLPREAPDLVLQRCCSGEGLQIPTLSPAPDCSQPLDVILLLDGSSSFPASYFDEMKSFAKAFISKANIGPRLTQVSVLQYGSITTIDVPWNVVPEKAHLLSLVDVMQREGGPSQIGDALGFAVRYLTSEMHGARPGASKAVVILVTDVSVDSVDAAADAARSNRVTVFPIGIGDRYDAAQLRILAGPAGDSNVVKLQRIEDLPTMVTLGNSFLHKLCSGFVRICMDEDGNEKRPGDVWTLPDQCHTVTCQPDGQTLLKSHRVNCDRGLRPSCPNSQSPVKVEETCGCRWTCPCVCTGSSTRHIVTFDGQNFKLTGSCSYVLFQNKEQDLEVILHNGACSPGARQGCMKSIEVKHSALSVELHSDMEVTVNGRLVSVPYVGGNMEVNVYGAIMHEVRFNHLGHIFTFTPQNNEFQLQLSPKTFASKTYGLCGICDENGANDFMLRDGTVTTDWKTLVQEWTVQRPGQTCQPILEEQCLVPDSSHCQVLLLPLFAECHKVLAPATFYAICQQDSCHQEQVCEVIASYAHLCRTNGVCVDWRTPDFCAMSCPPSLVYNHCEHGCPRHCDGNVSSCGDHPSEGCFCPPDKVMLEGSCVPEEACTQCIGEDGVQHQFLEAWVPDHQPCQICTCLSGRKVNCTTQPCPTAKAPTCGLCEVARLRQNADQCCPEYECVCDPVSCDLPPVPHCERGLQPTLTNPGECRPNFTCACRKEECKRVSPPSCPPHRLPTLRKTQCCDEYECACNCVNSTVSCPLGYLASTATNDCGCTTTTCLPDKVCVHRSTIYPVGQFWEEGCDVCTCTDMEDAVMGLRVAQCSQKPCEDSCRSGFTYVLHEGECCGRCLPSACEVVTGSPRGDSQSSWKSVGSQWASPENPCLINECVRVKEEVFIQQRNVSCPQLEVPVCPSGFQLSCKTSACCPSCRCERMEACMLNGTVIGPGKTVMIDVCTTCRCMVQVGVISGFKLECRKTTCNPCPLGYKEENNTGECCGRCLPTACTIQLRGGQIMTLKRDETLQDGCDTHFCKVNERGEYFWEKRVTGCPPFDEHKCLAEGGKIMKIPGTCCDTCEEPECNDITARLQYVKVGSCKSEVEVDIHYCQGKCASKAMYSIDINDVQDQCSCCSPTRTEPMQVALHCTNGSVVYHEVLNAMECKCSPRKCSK

Assays:
[1] = molecular target: T1, mouse MGL1 (CLEC10A orthologous mouse receptor protein) (mouse) (UniProt P49300); assay: SPR, steady state affinity fit
T1 sequence (looked up): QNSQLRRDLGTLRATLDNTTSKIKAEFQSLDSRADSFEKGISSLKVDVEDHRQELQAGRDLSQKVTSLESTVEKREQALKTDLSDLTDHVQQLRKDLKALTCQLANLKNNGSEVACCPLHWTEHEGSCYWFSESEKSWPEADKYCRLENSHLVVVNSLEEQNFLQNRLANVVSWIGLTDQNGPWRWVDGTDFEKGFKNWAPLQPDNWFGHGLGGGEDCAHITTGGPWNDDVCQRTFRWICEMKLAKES

[2] = molecular target: T1, mouse MGL1 (CLEC10A orthologous mouse receptor protein) (mouse); assay: SPR, receptor immobilized on CM3 chip, VWF monomers as analyte
[3] = molecular target: T2, recombinant human CLEC10A, extracellular domain (R&D Systems) (human) (UniProt Q8IUN9); assay: as above
T2 sequence (looked up): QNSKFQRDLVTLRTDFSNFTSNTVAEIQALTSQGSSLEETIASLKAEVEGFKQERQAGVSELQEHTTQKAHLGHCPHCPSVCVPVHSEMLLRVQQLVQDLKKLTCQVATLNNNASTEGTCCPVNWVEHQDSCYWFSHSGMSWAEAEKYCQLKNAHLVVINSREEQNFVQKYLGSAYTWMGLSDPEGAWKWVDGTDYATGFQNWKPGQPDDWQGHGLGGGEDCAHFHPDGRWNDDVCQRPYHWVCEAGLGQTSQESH

[4] = molecular target: T2, recombinant human CLEC10A, extracellular domain (R&D Systems) (human); assay: SPR (Biacore T200), CLEC10A immobilized on C1 chip, VWF monomers 31.25-4,000 nM as analyte

binding [1]: binds
binding [2]: binds
binding [3]: binds
binding [4]: binds
Substance: purified monomeric human VWF (von Willebrand factor) (from UniProt P04275 764-2813) (ligand)
